# Measured values as given in patent US7504403B2, “Substituted heterocyclic compounds and methods of use” (Amgen Inc., priority 2004, dated 2009).
# Some results were stated once for a whole list of compounds, not compound by compound. At least one compound was matched to its structure with a doubt left.
# Tested on: LPS induced TNF release
# Test: Lipopolysaccharide-Activated THP1 Cell TNF Production Assay
# Format: cell-based, human
# Method: Lipopolysaccharide-Activated THP1 Cell TNF Production Assay
# THP1 cells are resuspended in fresh THP1 media (RPMI 1640, 10% heat-inactivated FBS, 1×PGS, 1×NEAA, plus 30 μM βME) at a concentration of 1E6/mL. One hundred microliters of cells per well are plated in a polystyrene 96-well tissue culture. One microgram per mL of bacterial LPS is prepared in THP1 media and is transferred to the wells. Test compounds are dissolved in 100% DMSO and are serially diluted 3 fold in a polypropylene 96-well microtiter plate (drug plate). HI control and LO control wells contain only DMSO. One microliter of test compound from the drug plate followed by 10 μL of LPS are transferred to the cell plate. The treated cells are induced to synthesize and secrete TNF-α at 37° C. for 3 h. Forty microliters of conditioned media are transferred to a 96-well polypropylene plate containing 110 μL of ECL buffer (50 mM Tris-HCl pH 8.0, 100 mM NaCl, 0.05% Tween 20, 0.05% NaN3 and 1%FBS) supplemented with 0.44 nM MAB610 monoclonal Ab (R&D Systems), 0.34 nM ruthenylated AF210NA polyclonal Ab (R&D Systems) and 44 μg/mL sheep anti-mouse M280 Dynabeads (Dynal). After a 2 h incubation at room temperature with shaking, the reaction is read on the ECL M8 Instrument (IGEN Inc.). A low voltage is applied to the ruthenylated TNF-α immune complexes, which in the presence of TPA (the active component in Origlo), results in a cyclical redox reaction generating light at […]. The amount of secreted TNF-α in the presence of compound compared with that in the presence of DMSO vehicle alone (HI control) is calculated using the formula: % control (POC)=(cpd−average LO)/(average HI−average LO)*100. Data (consisting of POC and inhibitor concentration in μM) is fitted to a 4-parameter equation (y=A+((B−A)/(1+((x/C)^D))), where A is the minimum y (POC) value, B is the maximum y (POC), C is the x (cpd concentration) at the point of inflection and D is the slope factor) using a Levenburg-Marquardt non-linear regression algorithm.
smiles,measurement,value
"CC(N)c1ccc(CCNc2nccc(N3CCC(=O)N4CC=C(c5ccccc5)N=C43)n2)cc1 (stereo not shown) [Example 61, 1-(2-{2-[4-(1-Amino-ethyl)-phenyl]-ethylamino}-pyrimidin-4-yl)-8-phenyl-1,23,6-tetrahydro-pyrimido[1,2-a]pyrimidin-4-one]",IC50,≤ 20 µM
